Here are results for two sequences from paper doi:10.1101/488114.

Series [1] addresses T1, RAX1myb-6H (Arabidopsis thaliana) (UniProt Q9FG68).
T1 sequence (looked up, limits assumed): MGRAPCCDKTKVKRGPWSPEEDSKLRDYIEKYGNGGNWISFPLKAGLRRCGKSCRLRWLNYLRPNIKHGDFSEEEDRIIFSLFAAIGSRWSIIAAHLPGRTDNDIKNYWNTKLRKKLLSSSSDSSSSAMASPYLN
Put plainly: EMSA. On the technique in general: A gel shift assay detects complexes by their altered migration in electrophoresis.

For series [2], the target named is T2, RAX1full-MBP-6H (Arabidopsis thaliana) (UniProt Q9FG68).
T2 sequence (looked up): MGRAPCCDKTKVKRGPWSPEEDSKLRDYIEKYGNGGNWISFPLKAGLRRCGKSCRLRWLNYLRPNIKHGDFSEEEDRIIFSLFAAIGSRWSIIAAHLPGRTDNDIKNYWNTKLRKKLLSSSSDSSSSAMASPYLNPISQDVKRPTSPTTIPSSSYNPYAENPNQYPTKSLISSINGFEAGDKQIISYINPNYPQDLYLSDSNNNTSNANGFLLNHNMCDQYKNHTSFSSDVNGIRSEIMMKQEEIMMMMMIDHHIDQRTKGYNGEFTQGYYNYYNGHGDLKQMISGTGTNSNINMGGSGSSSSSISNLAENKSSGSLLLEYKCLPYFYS
Put plainly: EMSA. The settings on record: residues 1-329.

For at least one entry, the source does not settle the construct or the ends of the probe. Tags and fusion partners may be left off the protein sequences shown.

Consider “GTTGGGTACCTAACCTTCTAA (double strand) [RAX1bs]”, for which the binding result in series [1] and in series [2] was “binds” in each case.
Consider “GTTGGGTACCTAACTTTCTAA (double strand) [CLV1-bs1]”, for which the binding result in series [1] and in series [2] was “binds” each time.
